No constants are given. Whether binding was seen depends on the method and setting. In cells and extracts the contact can be indirect. Some binding calls cover weakened binding; strength is not graded here.
Molecular target: T1, RIM1 (mouse (endogenous in cerebellar synaptosomes)) (UniProt Q99NE5)
T1 sequence: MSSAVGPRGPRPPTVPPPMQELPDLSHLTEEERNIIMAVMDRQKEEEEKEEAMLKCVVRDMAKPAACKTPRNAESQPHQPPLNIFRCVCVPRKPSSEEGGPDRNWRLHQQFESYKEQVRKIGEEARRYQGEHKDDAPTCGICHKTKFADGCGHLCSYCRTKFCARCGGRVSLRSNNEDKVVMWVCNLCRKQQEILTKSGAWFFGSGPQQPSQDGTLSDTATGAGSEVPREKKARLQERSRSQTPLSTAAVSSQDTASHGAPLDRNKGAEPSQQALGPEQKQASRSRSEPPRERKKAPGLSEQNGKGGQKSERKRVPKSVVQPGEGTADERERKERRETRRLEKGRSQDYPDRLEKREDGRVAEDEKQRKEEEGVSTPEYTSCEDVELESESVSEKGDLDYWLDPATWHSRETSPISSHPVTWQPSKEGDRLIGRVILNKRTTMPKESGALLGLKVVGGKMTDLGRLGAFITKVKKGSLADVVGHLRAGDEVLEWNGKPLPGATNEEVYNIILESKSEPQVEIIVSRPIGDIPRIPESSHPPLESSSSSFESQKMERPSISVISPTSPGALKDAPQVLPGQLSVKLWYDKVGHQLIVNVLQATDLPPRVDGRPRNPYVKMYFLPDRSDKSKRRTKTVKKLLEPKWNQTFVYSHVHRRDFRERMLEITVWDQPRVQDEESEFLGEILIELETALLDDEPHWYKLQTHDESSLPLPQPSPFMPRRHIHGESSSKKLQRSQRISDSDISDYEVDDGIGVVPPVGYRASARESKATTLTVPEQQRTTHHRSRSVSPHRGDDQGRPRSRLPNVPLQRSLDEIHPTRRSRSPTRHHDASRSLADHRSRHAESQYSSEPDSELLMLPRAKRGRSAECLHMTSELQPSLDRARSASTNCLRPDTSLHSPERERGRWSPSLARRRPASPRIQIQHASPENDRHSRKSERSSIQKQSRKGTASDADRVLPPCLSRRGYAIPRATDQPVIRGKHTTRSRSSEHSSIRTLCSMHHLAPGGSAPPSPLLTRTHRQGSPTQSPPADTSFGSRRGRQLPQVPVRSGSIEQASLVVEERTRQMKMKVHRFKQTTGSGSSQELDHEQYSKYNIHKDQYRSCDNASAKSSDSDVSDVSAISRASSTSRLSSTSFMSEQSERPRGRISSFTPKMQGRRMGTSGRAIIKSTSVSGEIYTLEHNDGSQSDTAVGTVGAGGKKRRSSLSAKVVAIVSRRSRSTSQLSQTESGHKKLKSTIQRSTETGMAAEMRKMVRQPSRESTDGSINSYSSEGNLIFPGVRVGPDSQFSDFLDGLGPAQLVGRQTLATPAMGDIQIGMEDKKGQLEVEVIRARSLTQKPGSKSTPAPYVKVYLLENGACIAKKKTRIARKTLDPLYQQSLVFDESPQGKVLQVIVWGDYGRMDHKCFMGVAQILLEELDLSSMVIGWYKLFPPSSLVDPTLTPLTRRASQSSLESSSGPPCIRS
Assay: co-IP; lysate of mouse cerebellar synaptosomes (P21) incubated with anti-RIM1 antibody precoupled to GammaBind Plus Sepharose, western blot; rabbit IgG as negative control; also done with synaptosomes of Rapgef3/4-dKO and Prkce-cKO mice and after 8-pCPT (20 μM, 30 min), 8-pCPT + εV1-2 (5 µM, 30 min) or FR236924 (200 nM, 30 min)

binding: binds
B1: Rab3A (protein, UniProt P63011 1-220)
chain: MASATDSRYGQKESSDQNFDYMFKILIIGNSSVGKTSFLFRYADDSFTPAFVSTVGIDFKVKTIYRNDKRIKLQIWDTAGQERYRTITTAYYRGAMGFILMYDITNEESFNAVQDWSTQIKTYSWDNAQVLLVGNKCDMEDERVVSSERGRQLADHLGFEFFEASAKDNINVKQTFERLVDVICEKMSESLDTADPAVTGAKQGPQLTDQQAPPHQDCAC

From article PMC10171863
